The values below come from article doi:10.1101/2022.03.06.483161.

Amino acid sequences for entries named in this document (tags omitted).
UniProt O00570: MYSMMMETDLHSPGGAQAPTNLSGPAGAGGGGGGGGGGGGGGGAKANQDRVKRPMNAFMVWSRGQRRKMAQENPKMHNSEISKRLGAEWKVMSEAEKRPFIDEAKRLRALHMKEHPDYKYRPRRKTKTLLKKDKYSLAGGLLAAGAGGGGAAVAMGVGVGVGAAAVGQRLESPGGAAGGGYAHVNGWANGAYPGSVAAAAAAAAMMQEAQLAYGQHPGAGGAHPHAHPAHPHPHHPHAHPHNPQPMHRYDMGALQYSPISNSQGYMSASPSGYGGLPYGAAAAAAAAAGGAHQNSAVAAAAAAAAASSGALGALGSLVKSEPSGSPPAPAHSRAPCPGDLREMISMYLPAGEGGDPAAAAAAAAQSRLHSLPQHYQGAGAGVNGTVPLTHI

Assay [1] has as its target T1, NKX2-1 (endogenous) (human (endogenous in DMS 79, NCI-H187, NCI-H209)) (UniProt P43699).
T1 sequence: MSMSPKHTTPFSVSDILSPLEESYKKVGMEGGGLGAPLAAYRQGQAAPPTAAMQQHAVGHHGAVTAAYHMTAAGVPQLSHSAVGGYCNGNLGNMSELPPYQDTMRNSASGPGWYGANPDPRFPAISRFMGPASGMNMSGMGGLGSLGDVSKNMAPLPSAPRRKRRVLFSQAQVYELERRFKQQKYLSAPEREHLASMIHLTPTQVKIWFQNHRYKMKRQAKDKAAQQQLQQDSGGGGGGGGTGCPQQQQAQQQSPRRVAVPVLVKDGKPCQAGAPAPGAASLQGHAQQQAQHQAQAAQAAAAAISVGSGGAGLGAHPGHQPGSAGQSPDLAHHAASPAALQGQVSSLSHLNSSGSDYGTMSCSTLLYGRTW
Nature of the assay: proximity ligation.

The target in assay [2] is T1, NKX2-1 (endogenous) (human (endogenous in DMS 79, NCI-H187, NCI-H209)). Description: co-IP.

Results are given in words; binding and its absence hold for the method and conditions named. In cells and extracts the contact can be indirect. Some entries that bind do so weakly or less than the wild type.

“SOX1 (endogenous) (from UniProt O00570 1-391)”: the binding entry in assay [1] and in assay [2] was “binds” in each case.
